In PMC6627422:
These are yes or no findings as the source states them, for the method shown. Binding calls can cover weak binding; strength is not graded here. For part of these data: In cells and extracts the contact can be indirect. For part of these data: Tags and fused reporters may be left off the sequences shown.

molecular target: cYFP:UspA fusion for BiFC (Aspergillus nidulans); test: split reporter; BiFC with halves of YFP in A. nidulans hyphae during vegetative development, 20 h in light at 37 °C; nuclei marked by RFP-H2A

| binding | Binder |
| --- | --- |
| binds | nYFP:CsnB fusion for BiFC (protein, UniProt Q5B3U7 1-506) MSDDDDFMHDSADEEYDFEYEDADDDETGDIGIENKYYNAKQIKVDNPEEAIDEFLGVPALEQDKGDWGFKGLKQAIKLEFKLGRYSDAVEHYRELLTYVKSAVTRNYSEKSINNMLDYIEKGSDDEKAYQCMEEFYSLTLNSFQNTNNERLWLKTNIKLARLWLERREYGQLSKKVRELHRACQREDGSDDPSKGTYLLELYALEIQMYAETKNNKRLKALYQRALRVRSAVPHPKIMGIIRECGGKMHMSEENWEEAQSDFFESFRNYDEAGSMQRIQVLKYLVLTTMLMKSDINPFHSQETKPYKTDPRISAMTDLVDAFQRDDIHAYEEVLSKNPDVLADPFIAENIDEVSRNMRTKAILKLIAPYTRFTLSFISKHIKISVTEAQDILSFLILDKKLNAKIDQESGTVVVESASDVERLRSVEEWNESLRTLWQVTLKDGDGFKNDDVSQPTGIGMRGPLLYQSGLDDDTAGLLRSSGHRFRRGGKGSKAGGGLGMKTGLF |
| binds | nYFP:CsnF fusion for BiFC (protein, UniProt Q5BB47 1-386) MPDEAISILSQKSSDSGLHIQLHPLALLTISDHITRHAARSQQGPIVGGLLGQHNGREITVEHGFECVVEIGPNGEAQLPNEWFVDRVKQFKDVHKVPALDLIGWWSTAPPSGPTTAHLPIHRQILQNHNESAVFLTFHPSQVQGASQSQGKLPLTIYESVYEGESVTENGKAMQVDGEEQLLNIRFRELPYTIETGEAEMIGIDTVARTARNAAATETSTVAAPSSQIDSDKQEQQPANTDLLSPEEEELIASLNTRLNAIRTLESRISLIKSYLSSISPSSEEGQKDSATKPDHTILRDINSLLSNLSLLTPHEQSAFSAETLAQNNDVSLVALLGQLSQSVNGMREVGKRTAIVNSVRRNRKQLGAQSRYEDDILGRDGVALG |

molecular target: UspA (ubiquitin-specific protease A), yeast two-hybrid bait (Aspergillus nidulans); test: two-hybrid; UspA as bait (pEG202), single CSN subunits as prey (pJG4-5) in S. cerevisiae EGY48; LEU2 reporter, growth on galactose/raffinose medium lacking leucine, three to five days at 30 °C

| binding | Binder |
| --- | --- |
| binds | CsnA, COP9 signalosome subunit, yeast two-hybrid prey (protein, UniProt Q5BD89 1-498) MEPMLPEAGEAALLSSYAPQASGSMGVDPDPITGLVSTSAAPLVRVEEAPKFELESYIANYTGRTRFNRLYLIGTCSSYLAVDALKAAIAEAKSGKDVARYLRAVQALADVAPNEPEATIDSDWVERSQKVVKAETDRLEHELRGYKNNLIKESIRMGNEELGQHYHRIGDLTSAFKAYSRMRDFCTTPSHIASMLFKIINVAIERGDWLNVQSNVHRLRSQGGKPEEQAKHQPKISAAMGLSQLHSGSYLEAANSFIATDPSLGDTFNEVLTSNDVAVYGGLCALASMDRNELQRRVLDNSSFRNFLELEPHIRRAISFFCNSKFRPCLEILEAYRADYLLDIHLQRHVQVLYNRIRTKSIQQYLIPFNRVSLESMAKIFVLGNPTSQSSQSDSKSAFVQELISLIQDGTLDARIDLEKHVLVSTQGDKRIEVQEAVLDSLDNYVREAHLRLLRSNIIRAGLEVRPLGEDRRTKLEERGKKGHSAIGNLLRATGMKQ |
| binds | CsnD, COP9 signalosome subunit, yeast two-hybrid prey (protein, UniProt Q9C467 1-408) MPSQKIISALAEIESSASPQNKLQLYNDLLSETVSASPEPQLADDLIYYLDSVLSEDLSIVAARPILDSFIYTLRKLSSETQIKVAQHAVNLLQSRSASVEEQDAQIREILADAYEAEEEYIAAARALQGIHIDSSQRLVSDSAKVKLWIRIVRLYLEEDDTTSAEAFLNRIKNLPSKIEDHELKLHFRLSQARIQDARRRFLDASQEYFAVSLAAGVDESDRLQALAAAIRCAVLAPAGPQRSRTLATLYKDDRATSVEEFGILEKMFLDRLLTPEEVSAFAQRLAPHQLAQTADGTTVLDKAVVEHNLVAASKLYENIKTDALGAILGLQASGDLTAGEKAEAYAARMVEQGRLSGSIDQIDGIIYFESNTTATGRHIRQWDAGVQGLSEGVERVATNIAEGHLVR |
| binds | CsnB, COP9 signalosome subunit, yeast two-hybrid prey (protein, UniProt Q5B3U7 1-506) MSDDDDFMHDSADEEYDFEYEDADDDETGDIGIENKYYNAKQIKVDNPEEAIDEFLGVPALEQDKGDWGFKGLKQAIKLEFKLGRYSDAVEHYRELLTYVKSAVTRNYSEKSINNMLDYIEKGSDDEKAYQCMEEFYSLTLNSFQNTNNERLWLKTNIKLARLWLERREYGQLSKKVRELHRACQREDGSDDPSKGTYLLELYALEIQMYAETKNNKRLKALYQRALRVRSAVPHPKIMGIIRECGGKMHMSEENWEEAQSDFFESFRNYDEAGSMQRIQVLKYLVLTTMLMKSDINPFHSQETKPYKTDPRISAMTDLVDAFQRDDIHAYEEVLSKNPDVLADPFIAENIDEVSRNMRTKAILKLIAPYTRFTLSFISKHIKISVTEAQDILSFLILDKKLNAKIDQESGTVVVESASDVERLRSVEEWNESLRTLWQVTLKDGDGFKNDDVSQPTGIGMRGPLLYQSGLDDDTAGLLRSSGHRFRRGGKGSKAGGGLGMKTGLF |
| no binding | CsnC, COP9 signalosome subunit, yeast two-hybrid prey (protein, UniProt Q5B0Y2 1-496) MSDFLAYLTSAPSRPHGSANITDKCYDHQLRDLIAYLKQPGVAPSTADINGYLEAISPAVHSLSYLYLLRIRIQQLQEKTAVGVPNDLQPGGTLWNQTVKFLRSFDPIQIRYVGHEWRELVDSVANAALSVSKPILAVKMIRDALERLNTAGVFTSLHLMLVKLALLSSSYTYVLPVLDKLLCHFPSDTQNAHAGILLCSEHEPSTVFFTDSSGFSANLTYRDHLQFYMYSGMVYMALKKWDQASHCLGIVISAPTANSVSKIMVEAYKKWVLANLLGHGKLFSVPNLVAPHVTRVYQSLSKPYISLAEAFEKRDFQRLRTEISLGQTIWRADKNSGLVYQVFEAYDKFLIIKLGKTFSALTMPDVLQRASSCSKGSRDIEEFVVSLVMTKELRAKLSHSPGNETTTMLRFPLSSQSHALREEHIRFRLIQKEAALNTISRAITQTKITLETSHENLQVIAKNQKLAGSSERSGVVGSTEADGGGDLDEDLMGDGR |
| binds | CsnF, COP9 signalosome subunit, yeast two-hybrid prey (protein, UniProt Q5BB47 1-386) MPDEAISILSQKSSDSGLHIQLHPLALLTISDHITRHAARSQQGPIVGGLLGQHNGREITVEHGFECVVEIGPNGEAQLPNEWFVDRVKQFKDVHKVPALDLIGWWSTAPPSGPTTAHLPIHRQILQNHNESAVFLTFHPSQVQGASQSQGKLPLTIYESVYEGESVTENGKAMQVDGEEQLLNIRFRELPYTIETGEAEMIGIDTVARTARNAAATETSTVAAPSSQIDSDKQEQQPANTDLLSPEEEELIASLNTRLNAIRTLESRISLIKSYLSSISPSSEEGQKDSATKPDHTILRDINSLLSNLSLLTPHEQSAFSAETLAQNNDVSLVALLGQLSQSVNGMREVGKRTAIVNSVRRNRKQLGAQSRYEDDILGRDGVALG |
| binds | CsnE, catalytically active COP9 signalosome subunit, yeast two-hybrid prey (protein, UniProt Q5BBF1 1-335) MQAAQLSWELENAVTLIDPQRDSLYRYDEETHKYLSDTRPWTKDPHYFKSVRISAVALLKMVMHARSGGSLEVMGLMQGYILPNTFVVTDAFRLPVEGTETRVNAQDEANEYMVSYLQSCREAGRMENAVGWYHSHPGYGCWLSGIDVSTQDMQQMSGPFVAVVIDPERTISAGKVDIGAFRTFPKDYTPPKEEQEEDEYQTVPLNKAEDFGAHASHYYSLEVSLFKSALDTEILSLLWNKYWVATLSQSPLFTTRDYGSKQMLDLSQKTRRVARGIESNPPRGGAPTQVRDQQLERVVKDGQRIVSEEVKGLLAAEVKMQLFQGIGGKQTVEST |
| no binding | CsnG, COP9 signalosome subunit, yeast two-hybrid prey (protein, UniProt Q00648 1-327) MDQVHHRALDALQSFIALTDSSSATSPRYIASIITNATSSPHTYVFAELLERPAVQALRSPDTPAEFQSYLTLLEIFAWGTWQDYQQTPNLPPLSEEQARKLRLLTLLSLASTIKPLTYEALMTSLSLSAPSELESLVTTAIYSSLITGRLSPATNPPTVNVTSVAPLRDVKPSSLPTMISTLTAWEARCGSVISDIETEIAKIRADSAQRRQKEHARAVAIEKTLEKWNAEGGEQLQGGNPGQGQGQGQGGLGKNAGWKPRDLSTAMFERGFFGGGSNKREFDDDGYFDGGSSDFDQHGSGMDIDEGAGARASGARHSKRFLGKKS |
